# Results deposited as PubChem BioAssay AID743454 (Peter MacCallum Cancer Centre, 2014).
# Test: 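Search for knock-downs that restore vorinostat killing in resistant colon cancer cells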 (primary screen)
# Cells: human HCT116-VR colon cancer cells, selected for vorinostat resistance
# Knock-down reagent: siRNA pool against human genes, 40 nM siRNA pool
# Duration: vorinostat for 24 h, read-out about 72 h after transfection
# Challenge: vorinostat at 2.5 µM final
# Read-out: 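Cell viability by CellTiter-Fluor and caspase 3/7 activity by luminescence, each scaled to mock wells per plate, duplicates averaged, then robust z-scored over all plates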
# Scale: viability robust z-score: higher = more viable cells than screen typical; caspase robust z-score: higher = more caspase 3/7 activity than screen typical
# Rule for the call: 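Hits are knock-downs in viability class RV1/RV2 or caspase class CA1/CA2, excluding ones that killed cells in the no-drug cell-count arm; hits then retested with single siRNAs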
# In all, the deposit lists about 18,000 reagents; this is a part drawn at random. In the full data, 450 (2.5%) got an active call. 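Single biological run; no consistent viability z cut-off exists, so the class columns, not z-scores, define the calls.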 Unmarked entries are inactive. No sequences are given here.
gene symbol,viability hit class,caspase hit class,viability robust z-score,caspase robust z-score
ABLIM1 (actin binding LIM protein 1),no change,no change,-1.29,3.07
ATP6V1A (ATPase H+ transporting V1 subunit A),no change,no change,0.07,-1.1
DEFB124 (defensin beta 124),no change,no change,0.5,-0.68
"B4GALT4 (beta-1,4-galactosyltransferase 4)",no change (active),CA2 (caspase activation),0.6,7.43
MDK (midkine),no change,no change,0.46,2.1
KIR2DL5A,no change,no change,0.21,-0.89
SLIT3 (slit guidance ligand 3),no change,no change,-0.12,-0.3
SPSB1 (splA/ryanodine receptor domain and SOCS box containing 1),no change,no change,0.21,0.39
PTF1A (pancreas associated transcription factor 1a),no change,no change,0.52,-0.47
TCP10L3 (t-complex 10 like 3 (pseudogene)),no change,no change,-0.57,-0.84
COX7B (cytochrome c oxidase subunit 7B),no change,no change,1.01,-0.41
GPR161 (G protein-coupled receptor 161),no change,no change,-1.2,0.07
MYEOV (myeloma overexpressed),no change,no change,-1.05,-0.46

Records listed so far whose gene name begins with A or a:
gene symbol,viability hit class,caspase hit class,viability robust z-score,caspase robust z-score
ABLIM1 (actin binding LIM protein 1),no change,no change,-1.29,3.07
ATP6V1A (ATPase H+ transporting V1 subunit A),no change,no change,0.07,-1.1

Further reagents follow:
gene symbol,viability hit class,caspase hit class,viability robust z-score,caspase robust z-score
ABHD1 (abhydrolase domain containing 1),no change,no change,0.76,-0.02
TPH2 (tryptophan hydroxylase 2),no change,no change,0.92,0.6
RNF34 (ring finger protein 34),no change,no change,-0.13,0.18
G6PD (glucose-6-phosphate dehydrogenase),no change,no change,-1.55,0.62
ABCD1 (ATP binding cassette subfamily D member 1),no change,no change,-0.09,-0.52
GZMH (granzyme H),no change,no change,-0.18,0.52
OR4D11 (olfactory receptor family 4 subfamily D member 11),no change,no change,0.14,-0.55
OR2A5 (olfactory receptor family 2 subfamily A member 5),no change,no change,-0.19,-0.9
EPGN (epithelial mitogen),no change,no change,-1.24,-0.52
CSRP1 (cysteine and glycine rich protein 1),no change,no change,-1.36,-0.87
